Experimental data: US7678885 (GENETICS INSTITUTE, dated 2010)
These are yes or no findings as the source states them, for the method shown. For some of these results: In cells and extracts the contact can be indirect. Some results given as binding are weak or reduced against the parent protein; the word gives no strength. Blank lines part the entries; values can stand above or below the binder they belong to.

Chains of the proteins cited; added tags and fusions are not shown. Lines headed by an entry give the natural chain unless they say otherwise; changes in a name come on top.
UniProt P18075: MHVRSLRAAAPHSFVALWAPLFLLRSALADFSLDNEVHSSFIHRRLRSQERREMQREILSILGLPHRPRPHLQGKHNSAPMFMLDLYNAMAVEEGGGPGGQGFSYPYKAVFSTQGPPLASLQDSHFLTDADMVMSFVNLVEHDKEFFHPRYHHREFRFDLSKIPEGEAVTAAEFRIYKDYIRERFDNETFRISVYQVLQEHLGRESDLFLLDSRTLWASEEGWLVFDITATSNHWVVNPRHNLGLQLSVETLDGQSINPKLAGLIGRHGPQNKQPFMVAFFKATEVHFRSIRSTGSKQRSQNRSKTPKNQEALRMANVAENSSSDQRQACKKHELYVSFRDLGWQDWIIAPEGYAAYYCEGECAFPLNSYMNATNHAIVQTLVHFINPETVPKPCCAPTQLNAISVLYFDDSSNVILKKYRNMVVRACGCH

Legend:
[1] = target: BMP-7 subunit (CHO-produced) (human) (UniProt P18075); assay: co-immunoprecipitation with an antibody to one subunit, Western with an antibody to the other
[2] = target: BMP-7 subunit (CHO-produced) (human) (UniProt P18075); assay: two-dimensional non-reducing/reducing gel of labelled and purified protein from co-expressing CHO cells (disulfide-linked heterodimer)
[3] = target: E. coli BMP-7 monomer (mature BMP-7 deleted for its first seven residues, from plasmid pALBMP7-981) (human) (UniProt P18075); assay: co-refolding of E. coli monomers, C4 HPLC and SDS-PAGE
[4] = target: T1, E. coli BMP-3 monomer (a form of mature BMP-3 from plasmid pAIB3-782) (human) (UniProt P12645); assay: co-refolding of E. coli monomers, SDS-PAGE with and without reduction
T1 sequence (looked up): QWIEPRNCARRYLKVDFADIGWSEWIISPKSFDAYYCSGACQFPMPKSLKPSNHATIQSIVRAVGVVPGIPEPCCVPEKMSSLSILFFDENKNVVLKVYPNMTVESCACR

- binding [1]: binds
- binding [2]: binds
B1: BMP-2 subunit beginning with amino acid #283 (CHO-produced) (ligand)
chain: QAKHKQRKRLKSSCKRHPLYVDFSDVGWNDWIVAPPGYHAFYCHGECPFPLADHLNSTNHAIVQTLVNSVNSKIPKACCVPTELSAISMLYLDENEKVVLKNYQDMVVEGCGCR
notes: also called mature BMP-2 subunit

- binding [3]: binds
- binding [4]: binds
B2: E. coli BMP-2 monomer (mature portion of BMP-2 from plasmid pALBP2-781) (ligand)
chain: MQAKHKQRKRLKSSCKRHPLYVDFSDVGWNDWIVAPPGYHAFYCHGECPFPLADHLNSTNHAIVQTLVNSVNSKIPKACCVPTELSAISMLYLDENEKVVLKNYQDMVVEGCGCR
